Laboratory results: article PMC7949131
Results are given in words; binding and its absence hold for the method and conditions named. Binding seen in cells or lysates may run through a third protein. Some entries that bind do so weakly or less than the wild type.

The chains behind the UniProt entries cited, without tags or fusion partners.
UniProt P14600: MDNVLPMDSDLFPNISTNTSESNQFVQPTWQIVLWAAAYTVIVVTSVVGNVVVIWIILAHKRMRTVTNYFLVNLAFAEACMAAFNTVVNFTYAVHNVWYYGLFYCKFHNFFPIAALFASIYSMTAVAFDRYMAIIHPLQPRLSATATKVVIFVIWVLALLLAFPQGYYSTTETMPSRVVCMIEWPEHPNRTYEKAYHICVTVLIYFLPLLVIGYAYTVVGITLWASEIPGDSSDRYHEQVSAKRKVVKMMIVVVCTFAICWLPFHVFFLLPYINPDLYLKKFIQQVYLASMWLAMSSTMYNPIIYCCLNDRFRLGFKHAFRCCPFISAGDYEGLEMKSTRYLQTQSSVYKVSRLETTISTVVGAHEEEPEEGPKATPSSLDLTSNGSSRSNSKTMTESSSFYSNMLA
UniProt P29067: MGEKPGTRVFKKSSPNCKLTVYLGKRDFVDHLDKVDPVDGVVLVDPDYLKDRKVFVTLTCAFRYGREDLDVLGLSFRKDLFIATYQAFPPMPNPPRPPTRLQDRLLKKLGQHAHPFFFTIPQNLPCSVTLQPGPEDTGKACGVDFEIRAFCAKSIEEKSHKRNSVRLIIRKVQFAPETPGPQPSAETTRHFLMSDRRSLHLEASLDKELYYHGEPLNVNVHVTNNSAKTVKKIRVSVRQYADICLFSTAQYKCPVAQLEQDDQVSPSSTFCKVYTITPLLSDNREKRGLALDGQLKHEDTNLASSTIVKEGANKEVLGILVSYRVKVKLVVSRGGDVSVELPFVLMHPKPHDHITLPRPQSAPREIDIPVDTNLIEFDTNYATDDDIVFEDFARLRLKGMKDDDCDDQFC

Biological target: NK1R-RLuc8 (rat) (UniProt P14600)
Assay: FRET or BRET; BRET in live HEK293 cells cotransfected with 1 μg NK1R-RLuc8 and 4 μg β-arrestin 2-YFP; 1 nM SP added after baseline, read every 1 min for 25 min; coelenterazine h 5 μM, HBSS

binding: binds
Substance: β-arrestin 2-YFP (from UniProt P29067 1-410)
